# Laboratory results published in the supplement of paper PMC8728848.
# Some of the results follow.
# B1: OS9 (Arabidopsis thaliana) (protein)
# chain: MRGSHHHHHHGMASMTGGQQMGRDLYDDDDKSRLQIFPAHLVGTFSRNNREPKYKIEFLPEDSPFHPGDNLESMVMLDKHGNRFLCYLPKEEKATSGWTSSQQNISTVMMETQQLVKLKTPDELLQPLSEKCLFRQEGWWSYEFCHQKYVRQLHVEDENKIVQEFFLGTFDPEATAAFNQTVSDASTDASQRYHSHVYTNGTTCDLTGSPAEVEVRFVCAETRAMVTSITELSTCKYALTVQCPTLCKHPLFQLEKPVSHTIHCNAIPVEEDATRNKEEQAVDESPKMIADS
# Tests used:
# Assay in all cases: glycan array binding signal (z-score within array); higher = stronger binding
# Settings in all cases: glycan notation: IUPAC condensed, linker removed; mutation: R201A
# [1] = target: Fuc(a1-2)[Gal(a1-3)]Gal(b1-4)GlcNAc(b1-2)Man(a1-3)[Fuc(a1-2)[Gal(a1-3)]Gal(b1-4)GlcNAc(b1-2)Man(a1-6)]Man(b1-4)GlcNAc(b1-4)GlcNAc
# How it was run: (§1)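 Glycan array binding is given as a within-array Z-score, which can be read as non-binding when negative. The arrays, 3228 of them, came from the Consortium for Functional Glycomics database and were retained only where the protein sequence was available. Z-scores were averaged across arrays of the same protein sequence at different concentrations or buffers and across linkers.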
# [2] = target: Fuc(a1-2)[Gal(a1-3)]Gal(b1-4)GlcNAc(b1-2)Man(a1-3)[Fuc(a1-2)[Gal(a1-3)]Gal(b1-4)GlcNAc(b1-2)Man(a1-6)]Man(b1-4)GlcNAc(b1-4)[Fuc(a1-6)]GlcNAc
# How it was run: as §1
# [3] = target: Fuc(a1-2)[Gal(a1-3)]Gal(b1-4)GlcNAc(b1-3)GalNAc
# How it was run: as §1
# [4] = target: Fuc(a1-2)[Gal(a1-3)]Gal(b1-4)GlcNAc(b1-3)[Fuc(a1-2)[Gal(a1-3)]Gal(b1-4)GlcNAc(b1-6)]GalNAc
# How it was run: as §1
# [5] = target: Fuc(a1-2)[Gal(a1-3)]Gal(b1-4)GlcNAc(b1-6)GalNAc
# How it was run: as §1
# [6] = target: Fuc(a1-2)[Gal(a1-3)]Gal(b1-4)[Fuc(a1-3)]Glc
# How it was run: as §1
# [7] = target: Fuc(a1-2)[Gal(a1-3)]Gal(b1-4)[Fuc(a1-3)]GlcNAc
# How it was run: as §1
# [8] = target: Fuc(a1-2)[Gal(a1-3)]Gal(b1-4)[Fuc(a1-3)]GlcNAc(b1-3)GalNAc
# How it was run: as §1
# [9] = target: Fuc(a1-2)[Gal(a1-4)]Gal(b1-4)GlcNAc
# How it was run: as §1
# [10] = target: Fuc(a1-2)[GalNAc(a1-3)]Gal
# How it was run: as §1
# [11] = target: Fuc(a1-2)[GalNAc(a1-3)]Gal(b1-3)GalNAc(a1-3)[Fuc(a1-2)]Gal(b1-4)GlcNAc
# How it was run: as §1
# [12] = target: Fuc(a1-2)[GalNAc(a1-3)]Gal(b1-3)GalNAc(b1-3)Gal(a1-4)Gal(b1-4)Glc
# How it was run: as §1
# [13] = target: Fuc(a1-2)[GalNAc(a1-3)]Gal(b1-3)GlcNAc
# How it was run: as §1
# [14] = target: Fuc(a1-2)[GalNAc(a1-3)]Gal(b1-3)GlcNAc(b1-2)Man(a1-3)[Fuc(a1-2)[GalNAc(a1-3)]Gal(b1-3)GlcNAc(b1-2)Man(a1-6)]Man(b1-4)GlcNAc(b1-4)GlcNAc
# How it was run: as §1
# [15] = target: Fuc(a1-2)[GalNAc(a1-3)]Gal(b1-3)GlcNAc(b1-2)Man(a1-3)[Fuc(a1-2)[GalNAc(a1-3)]Gal(b1-3)GlcNAc(b1-2)Man(a1-6)]Man(b1-4)GlcNAc(b1-4)[Fuc(a1-6)]GlcNAc
# How it was run: as §1
# [16] = target: Fuc(a1-2)[GalNAc(a1-3)]Gal(b1-3)GlcNAc(b1-3)GalNAc
# How it was run: as §1
# [17] = target: Fuc(a1-2)[GalNAc(a1-3)]Gal(b1-3)GlcNAc(b1-6)GalNAc
# How it was run: as §1
# [18] = target: Fuc(a1-2)[GalNAc(a1-3)]Gal(b1-4)Glc
# How it was run: as §1
# [19] = target: Fuc(a1-2)[GalNAc(a1-3)]Gal(b1-4)GlcNAc
# How it was run: as §1
# [20] = target: Fuc(a1-2)[GalNAc(a1-3)]Gal(b1-4)GlcNAc(b1-2)Man
# How it was run: as §1
# [21] = target: Fuc(a1-2)[GalNAc(a1-3)]Gal(b1-4)GlcNAc(b1-2)Man(a1-3)[Fuc(a1-2)[GalNAc(a1-3)]Gal(b1-4)GlcNAc(b1-2)Man(a1-6)]Man(b1-4)GlcNAc(b1-4)GlcNAc
# How it was run: as §1
# [22] = target: Fuc(a1-2)[GalNAc(a1-3)]Gal(b1-4)GlcNAc(b1-2)Man(a1-3)[Fuc(a1-2)[GalNAc(a1-3)]Gal(b1-4)GlcNAc(b1-2)Man(a1-6)]Man(b1-4)GlcNAc(b1-4)[Fuc(a1-6)]GlcNAc
# How it was run: as §1
# [23] = target: Fuc(a1-2)[GalNAc(a1-3)]Gal(b1-4)GlcNAc(b1-3)Gal(b1-4)GlcNAc
# How it was run: as §1
# [24] = target: Fuc(a1-2)[GalNAc(a1-3)]Gal(b1-4)GlcNAc(b1-3)Gal(b1-4)GlcNAc(b1-3)Gal(b1-4)GlcNAc
# How it was run: as §1
# [25] = target: Fuc(a1-2)[GalNAc(a1-3)]Gal(b1-4)GlcNAc(b1-3)GalNAc
# How it was run: as §1
# [26] = target: Fuc(a1-2)[GalNAc(a1-3)]Gal(b1-4)GlcNAc(b1-3)[Fuc(a1-2)[GalNAc(a1-3)]Gal(b1-4)GlcNAc(b1-6)]GalNAc
# How it was run: as §1
# [27] = target: Fuc(a1-2)[GalNAc(a1-3)]Gal(b1-4)GlcNAc(b1-6)GalNAc
# How it was run: as §1
# [28] = target: Fuc(a1-2)[GalNAc(a1-3)]Gal(b1-4)[Fuc(a1-3)]GlcNAc
# How it was run: as §1
# [29] = target: Fuc(a1-2)[GalNAc(a1-3)]Gal(b1-4)[Fuc(a1-3)]GlcNAc(b1-3)GalNAc
# How it was run: as §1
# [30] = target: Fuc(a1-2)[GalNAc(a1-4)]Gal(b1-4)GlcNAc
# How it was run: as §1
binder,measurement,setting,value
B1,glycan array binding signal (z-score),[1],-0.237
same,glycan array binding signal (z-score),[2],-0.309
same,glycan array binding signal (z-score),[3],-0.385
same,glycan array binding signal (z-score),[4],1.25
same,glycan array binding signal (z-score),[5],-0.223
same,glycan array binding signal (z-score),[6],-0.035
same,glycan array binding signal (z-score),[7],0.17
same,glycan array binding signal (z-score),[8],-0.809
same,glycan array binding signal (z-score),[9],-0.617
same,glycan array binding signal (z-score),[10],-0.65
same,glycan array binding signal (z-score),[11],-0.723
same,glycan array binding signal (z-score),[12],0.593
same,glycan array binding signal (z-score),[13],-1.09
same,glycan array binding signal (z-score),[14],-0.508
same,glycan array binding signal (z-score),[15],-1.14
same,glycan array binding signal (z-score),[16],-0.027
same,glycan array binding signal (z-score),[17],-0.314
same,glycan array binding signal (z-score),[18],0.109
same,glycan array binding signal (z-score),[19],-0.356
same,glycan array binding signal (z-score),[20],0.105
same,glycan array binding signal (z-score),[21],1.51
same,glycan array binding signal (z-score),[22],-0.739
same,glycan array binding signal (z-score),[23],-0.887
same,glycan array binding signal (z-score),[24],2.49
same,glycan array binding signal (z-score),[25],-0.487
same,glycan array binding signal (z-score),[26],0.058
same,glycan array binding signal (z-score),[27],-1.09
same,glycan array binding signal (z-score),[28],1.98
same,glycan array binding signal (z-score),[29],-0.406
same,glycan array binding signal (z-score),[30],-0.156

# Retrieved one by one from above (2):
binder,measurement,setting,value
B1,glycan array binding signal (z-score),[22],-0.739
same,glycan array binding signal (z-score),[19],-0.356
